Reference: US7317002B2 (Applied Research Systems ARS Holding N.V., priority 1997, dated 2008)

Test: general procedure: Fmoc solid-phase peptide synthesis; PAL-PEG-PS; HBTU
Conditions: whole synthesis, analytical HPLC, scale approx. 70 μmols

## [N^α-isopropyl-Tyr^1,Lys(Alloc)^12]-hGRF(1-29)—NH2
  final HPLC purity: >95%
